The list shows a part of the results, in another mix than the full data. For part of these data: At the low end of the ranking, values are background and their order means little.

The chains behind the UniProt entries cited, without tags or fusion partners. Where a name states a change or a piece, a line headed by the entry shows the natural chain unless it says otherwise.
UniProt Q01892: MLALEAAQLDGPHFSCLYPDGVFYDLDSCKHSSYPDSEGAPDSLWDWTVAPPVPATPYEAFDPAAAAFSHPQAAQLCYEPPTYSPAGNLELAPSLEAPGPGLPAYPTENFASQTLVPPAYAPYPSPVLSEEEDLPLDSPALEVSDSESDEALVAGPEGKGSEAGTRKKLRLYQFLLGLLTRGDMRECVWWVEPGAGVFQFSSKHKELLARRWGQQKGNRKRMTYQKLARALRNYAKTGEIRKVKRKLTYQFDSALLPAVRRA
UniProt P41161: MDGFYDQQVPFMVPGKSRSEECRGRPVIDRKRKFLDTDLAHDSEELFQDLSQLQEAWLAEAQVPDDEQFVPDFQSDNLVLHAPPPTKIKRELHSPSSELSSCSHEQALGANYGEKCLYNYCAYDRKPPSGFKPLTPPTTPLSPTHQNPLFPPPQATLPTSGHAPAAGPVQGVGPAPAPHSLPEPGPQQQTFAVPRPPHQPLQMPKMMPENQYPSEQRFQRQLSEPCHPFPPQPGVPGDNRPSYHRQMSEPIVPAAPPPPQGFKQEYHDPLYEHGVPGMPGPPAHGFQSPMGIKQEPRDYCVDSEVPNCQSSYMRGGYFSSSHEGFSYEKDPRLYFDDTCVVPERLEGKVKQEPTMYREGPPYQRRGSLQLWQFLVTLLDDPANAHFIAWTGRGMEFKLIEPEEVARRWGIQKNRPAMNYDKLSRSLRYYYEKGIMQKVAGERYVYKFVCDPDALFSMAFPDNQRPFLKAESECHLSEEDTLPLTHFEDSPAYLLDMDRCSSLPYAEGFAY

In one test the target is T1, FLI1 (UniProt Q01543).
T1 sequence: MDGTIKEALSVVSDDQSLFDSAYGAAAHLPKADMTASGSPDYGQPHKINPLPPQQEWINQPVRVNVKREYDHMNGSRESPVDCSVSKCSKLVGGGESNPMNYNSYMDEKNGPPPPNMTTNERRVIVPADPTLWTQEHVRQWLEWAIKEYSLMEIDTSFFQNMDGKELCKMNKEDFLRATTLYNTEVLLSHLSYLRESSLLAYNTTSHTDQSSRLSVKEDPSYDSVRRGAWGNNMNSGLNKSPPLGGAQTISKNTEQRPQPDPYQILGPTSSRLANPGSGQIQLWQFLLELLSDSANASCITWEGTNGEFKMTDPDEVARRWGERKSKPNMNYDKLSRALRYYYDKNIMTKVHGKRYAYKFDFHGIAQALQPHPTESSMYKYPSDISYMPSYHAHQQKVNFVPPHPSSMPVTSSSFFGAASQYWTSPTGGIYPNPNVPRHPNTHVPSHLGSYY
The experiment in a line: DAPPL (digital affinity profiling via proximity ligation, sequencing). The note with it: 10 mM Tris-HCl pH 7.5, 50 mM NaCl, 1 mM DTT, 4% glycerol, room temperature, 30 min; GST-TFs on glutathione beads, 16-mer random dsDNA library, 0.1% …; high values mean tight binding; double strand, one strand shown; scale: fold enrichment (6-mer frequency, TF over GST control).
Sequence TGCATT gave a binding signal of 1.34.

TACGAC: the binding signal was determined as 1.33.

Take CACATA: the binding signal came to 1.14.

Turning to GATGTT, the binding signal came to 1.28.

For CCACTA, the binding signal turned out to be 1.1.

Turning to ATCCCG, the binding signal is 1.5.

GCACTC had a binding signal of 1.29.

Take ATTTTA: the binding signal was 1.32.

As to ACTGAA, the binding signal stood at 1.07.

TTAAAT showed a binding signal of 1.17.

As to CGTCAA, the binding signal came out at 1.2.

For the sequence TATGGG, the binding signal worked out at 1.23.

The sequence AAGCAA displayed a binding signal of 1.03.

Turning to GCCGAT, the binding signal came to 1.14.

On to CTGCTT, for which the binding signal is 1.69.

Consider AATAAA, for which the binding signal is 1.2.

As to GCCTAA, the binding signal came to 1.22.

The sequence CAACGA yielded a binding signal of 1.05.

With CTACTG, the binding signal was determined as 1.31.

For the sequence ACACAA, the binding signal came out at 1.14.

CCGGAT came in with a binding signal of 3.23.

In the case of TGCCCA, the binding signal is 1.21.

In the case of TCGATA, the binding signal was 1.17.

Take AACATT: the binding signal was 1.37.

Regarding ATAAGC, the binding signal amounted to 1.02.

AAGTAT had a binding signal of 1.44.

A further test addresses SPIB (UniProt Q01892). The test is described as above. The conditions noted are these: 10 mM Tris-HCl pH 7.5, 50 mM NaCl, 1 mM DTT, 4% glycerol, room temperature, 30 min; GST-TFs on glutathione beads, 16-mer random dsDNA library, 0.1% …; high values mean tight binding; double strand, one strand shown; scale: fold enrichment (6-mer frequency, TF over GST control).
ATTCAT gave a binding signal of 1.21.

With GTTATT, the binding signal was 1.09.

Take TTGTGC: the binding signal came out at 1.1.

In the case of CACTGC, the binding signal is 1.44.

On to CTCTCT, for which the binding signal turned out to be 1.56.

As to TTACCT, the binding signal worked out at 1.4.

TTGAGG had a binding signal of 0.951.

GCTTGT yielded a binding signal of 1.13.

In turn, GTGTTC gave a binding signal of 1.09.

CTCCCA: the binding signal was found to be 1.36.

Take ATATTG: the binding signal turned out to be 1.28.

As for TACAGG, the binding signal stood at 1.2.

Sequence CGTCAC returned a binding signal of 1.18.

TTCTCT had a binding signal of 1.16.

Another test concerns the target ETV5 (UniProt P41161). The test is described as above. The conditions noted are these: 10 mM Tris-HCl pH 7.5, 50 mM NaCl, 1 mM DTT, 4% glycerol, room temperature, 30 min; GST-TFs on glutathione beads, 16-mer random dsDNA library, 0.1% …; high values mean tight binding; double strand, one strand shown; scale: fold enrichment (6-mer frequency, TF over GST control).
For ATTCAT, the binding signal amounted to 1.21.

GTTATT showed a binding signal of 1.26.

Sequence TTGTGC returned a binding signal of 1.17.

The sequence CACTGC gave a binding signal of 1.37.

The sequence CTCTCT had a binding signal of 1.57.

For TTACCT, the binding signal is 1.35.

TTGAGG displayed a binding signal of 1.09.

The sequence GCTTGT had a binding signal of 1.2.

Sequence GTGTTC registered a binding signal of 1.14.

Sequence CTCCCA registered a binding signal of 1.37.

On to ATATTG, for which the binding signal came out at 1.37.

Take TACAGG: the binding signal came to 1.24.

Sequence CGTCAC displayed a binding signal of 1.24.

For the sequence TTCTCT, the binding signal amounted to 1.24.

The record behind these values is PMC7862700.
